# Assay results taken from paper PMC10132759.
# By UniProt entry, the sequences of proteins in these tests, tags left out. Where a name states a change or a piece, a line headed by the entry shows the natural chain unless it says otherwise. Chains listed by the source or under a name are the forms on record and can include a tag or linker.
# UniProt Q60780: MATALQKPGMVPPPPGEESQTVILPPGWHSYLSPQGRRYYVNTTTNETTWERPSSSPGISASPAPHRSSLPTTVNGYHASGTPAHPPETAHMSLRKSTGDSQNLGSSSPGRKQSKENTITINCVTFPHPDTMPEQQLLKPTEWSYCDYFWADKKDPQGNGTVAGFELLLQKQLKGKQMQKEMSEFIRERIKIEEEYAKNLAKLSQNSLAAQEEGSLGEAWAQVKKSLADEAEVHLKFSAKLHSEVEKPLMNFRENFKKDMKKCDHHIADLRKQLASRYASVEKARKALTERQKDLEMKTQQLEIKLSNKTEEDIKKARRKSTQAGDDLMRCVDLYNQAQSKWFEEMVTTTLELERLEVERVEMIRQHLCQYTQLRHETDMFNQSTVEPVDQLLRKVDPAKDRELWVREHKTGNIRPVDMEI
# UniProt Q95107: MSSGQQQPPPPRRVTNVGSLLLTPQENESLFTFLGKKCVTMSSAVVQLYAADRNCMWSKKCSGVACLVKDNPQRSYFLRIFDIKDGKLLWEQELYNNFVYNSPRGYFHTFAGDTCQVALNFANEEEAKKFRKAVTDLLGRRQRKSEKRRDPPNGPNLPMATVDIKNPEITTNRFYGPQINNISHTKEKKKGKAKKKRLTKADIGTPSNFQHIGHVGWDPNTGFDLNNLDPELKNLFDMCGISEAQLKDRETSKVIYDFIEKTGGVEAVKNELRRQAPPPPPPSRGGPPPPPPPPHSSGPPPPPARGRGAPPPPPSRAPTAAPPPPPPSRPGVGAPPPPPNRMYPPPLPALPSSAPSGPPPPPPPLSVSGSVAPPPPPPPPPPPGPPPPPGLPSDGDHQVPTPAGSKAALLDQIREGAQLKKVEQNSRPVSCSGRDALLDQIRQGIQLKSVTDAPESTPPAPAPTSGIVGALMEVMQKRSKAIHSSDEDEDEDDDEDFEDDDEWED
# N-WASP ΔPRR without a tag (Q95107, form named): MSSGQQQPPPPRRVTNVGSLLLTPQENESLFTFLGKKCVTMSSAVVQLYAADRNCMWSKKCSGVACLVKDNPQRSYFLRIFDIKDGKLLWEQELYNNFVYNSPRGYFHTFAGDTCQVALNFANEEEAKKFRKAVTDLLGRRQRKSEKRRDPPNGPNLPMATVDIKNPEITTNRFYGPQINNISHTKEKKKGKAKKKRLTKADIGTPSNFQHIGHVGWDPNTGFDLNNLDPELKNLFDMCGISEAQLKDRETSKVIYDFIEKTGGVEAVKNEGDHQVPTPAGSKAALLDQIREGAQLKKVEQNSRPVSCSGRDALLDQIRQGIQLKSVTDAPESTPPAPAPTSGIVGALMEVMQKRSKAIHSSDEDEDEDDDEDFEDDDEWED
# These are yes or no findings as the source states them, for the method shown. A result given as binding can be weak or reduced; the word gives no strength.
# Molecular target: GST-GAS7cb (mouse) (UniProt Q60780)
# Assay: pull-down; 1 μM GST-fused protein (or GST) on Glutathione Sepharose beads; 0.5 μM tag-free protein (1 μM for Nck and Grb2 with N-WASP and GAS7 isoforms); 10 mM tris-HCl pH 7.5, 150 mM NaCl, 1 mM EDTA, 5% glycerol; 4°C, 1 hour; SDS-PAGE and Western blotting; both purified
row,binding,Substance
1,no binding (tested: 1 μM),Grb2 without a tag (from UniProt P62994-1 1-217)
2,binds,N-WASP without a tag (from UniProt Q95107 1-505)
3,binds,N-WASP ΔPRR without a tag (from UniProt Q95107)
